The experiment relates to MX-1 breast xenograft, nude mice, tumor weight T/C. Briefly: NCI In Vivo Anticancer Drug Screen. Data for tumor model Human Mammary Carcinoma MX-1 Xenograft (intrarenal inoculation) in NU/NU Swiss (nude) mice. Particulars: T/C endpoint: mean tumor weight change, higher T/C = larger tumour; for T/C: evaluated on day 11. The gist of the method:
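Antitumour effect measured in vivo against vehicle controls, expressed as T/C.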

[1] abbreviates: dose: 150.0 mg/kg/injection, schedule: Q04DX003 (sc), vehicle: Klucel (hydroxypropylcellulose) (HPC).
Setting [2] is: dose: 600.0 mg/kg/injection, schedule: Q04DX003 (ip), vehicle: saline with Tween-80.
[3] abbreviates: dose: 1200.0 mg/kg/injection, schedule: Q04DX003 (ip), vehicle: saline with Tween-80.
Where [4] appears, read: dose: 64.0 mg/kg/injection, schedule: Q04DX003 (sc), vehicle: saline.
Setting [5] is: dose: 128.0 mg/kg/injection, schedule: Q04DX003 (sc), vehicle: saline.

The list is a part of this screen's results and no random one: it is rich in T/C values a quarter to a half above the control, in often repeated tests (any T/C) and in doses without a T/C. Further doses and runs are listed elsewhere. T/C is the treated group as % of the vehicle group. Schedule codes are those of the source, read here as Q, the interval in days (D) or hours (H), X, the number of doses. Some T/C values carry the count of animals alive at the toxicity check (mostly the fifth day); where none is given, no animal had died by that day. Some values lie below zero, which means that the treated tumours became smaller. Some doses were run more than once; the values are given in rising order. Some doses have a count of surviving animals in place of a T/C: the source files T/C as zero there, which appears to mark a toxic dose or a test without result, not a measured value. Counts of survivors are from the toxicity check (mostly the fifth day) where no day follows; animals may have died later.

Take `C=C(OP(=O)(OC)OC)Sc1ccccc1C`: the survivor count (dose: 0.75 mg/kg/injection, schedule: Q04DX003 (sc), vehicle: Klucel (hydroxypropylcellulose) (HPC)) was 3 of 6 on day 11; the survivor count (dose: 0.8 mg/kg/injection, schedule: Q04DX003 (sc), vehicle: Klucel (hydroxypropylcellulose) (HPC)) is given as 2 of 6 on day 11; the survivor count (dose: 1.5 mg/kg/injection, schedule: Q04DX003 (sc), vehicle: Klucel (hydroxypropylcellulose) (HPC)) is recorded as 0 of 6 on day 11; the survivor count (dose: 1.6 mg/kg/injection, schedule: Q04DX003 (sc), vehicle: Klucel (hydroxypropylcellulose) (HPC)) is reported as 0 of 6 on day 11; the survivor count (dose: 3.0 mg/kg/injection, schedule: Q04DX003 (sc), vehicle: Klucel (hydroxypropylcellulose) (HPC)) was 0 of 6 on day 11; the survivor count (dose: 6.0 mg/kg/injection, schedule: Q04DX003 (sc), vehicle: Klucel (hydroxypropylcellulose) (HPC)) is given as 0 of 6 on day 11. Further, the survivor count under setting [1] is given as 0 of 6 on day 11; the survivor count (dose: 300.0 mg/kg/injection, schedule: Q04DX003 (sc), vehicle: Klucel (hydroxypropylcellulose) (HPC)) is on record as 0 of 6 on day 11; the survivor count (dose: 600.0 mg/kg/injection, schedule: Q04DX003 (sc), vehicle: Klucel (hydroxypropylcellulose) (HPC)) is on record as 0 of 6 on day 11; the survivor count (dose: 1200.0 mg/kg/injection, schedule: Q04DX003 (sc), vehicle: Klucel (hydroxypropylcellulose) (HPC)) is on record as 0 of 6 on day 11.
In the case of `CC(C)(C)N1CC1CNC(=O)C(=O)NCC1CN1C(C)(C)C` (stereo not drawn), the survivor count (dose: 50.0 mg/kg/injection, schedule: Q04DX003 (sc), vehicle: saline with Tween-80) is given as 2 of 6 on day 11.
With `c1ccc(OCC2CO2)c(OCC2CO2)c1` (stereo not drawn), the survivor count was 2 of 6 on day 11 under setting [2] and 0 of 6 on day 11 under setting [3].
As for `O=c1cnn(C2OC(CO)C(O)C2O)c(=O)[nH]1` (stereo not drawn), the survivor count is 1 of 3 on day 11 (dose: 800.0 mg/kg/injection, schedule: Q01DX010 (sc), vehicle: saline) and 0 of 3 on day 11 (dose: 1600.0 mg/kg/injection, schedule: Q01DX010 (sc), vehicle: saline).
Turning to `C[PH+](C)C.C[PH+](C)C.[Au]`, where the note is “dose: 40.0 mg/kg/injection, schedule: Q04DX003 (sc), vehicle: suspension in saline”, the survivor count is reported as 2 of 6 on day 11.
In the case of `COc1c(CNC(=O)CCl)cc2[nH]c(C)cc2c1CNC(=O)CCl`, where the note is “dose: 500.0 mg/kg/injection, schedule: Q04DX003 (sc), vehicle: Klucel (hydroxypropylcellulose) (HPC)”, the T/C is 137 % of control.
For `CCCCc1ccc2nc(NC(=O)OC)[nH]c2c1`, the T/C (dose: 100.0 mg/kg/injection, schedule: Q01DX010 (sc), vehicle: saline with Tween-80) is 145 % of control.
As for `COC12[C@@H]3N[C@@H]3CN1C1=C(C(=O)C(NCCSSCCNC3=C(C)C(=O)C4=C(C3=O)C(COC(N)=O)[C@]3(OC)C5N[C@@H]5CN43)=C(C)C1=O)[C@@H]2COC(N)=O` (stereo partly drawn), the survivor count is, setting by setting: (dose: 12.5 mg/kg/injection, schedule: Q04DX003 (ip), vehicle: DMSO) 2 of 6 on day 11; (dose: 25.0 mg/kg/injection, schedule: Q04DX003 (ip), vehicle: DMSO) 0 of 6 on day 11; (dose: 50.0 mg/kg/injection, schedule: Q04DX003 (ip), vehicle: DMSO) 0 of 6 on day 11.
As to `CC1/C=C/C=C/CC/C=C/C=C/C=C/C=C/C(OC2OC(C)C(O)C(N)C2O)CC2OC(CC(O)C(O)CCC(O)CC(O)CC(O)CC(=O)OC(C)C(C)C1O)CC(O)C2C(=O)O` (stereo not drawn), the survivor count runs as follows: under setting [2], 3 of 6 on day 11; under setting [3], 2 of 5 on day 11.
For the compound `S=c1[nH]cc2cnccn12`, the T/C (dose: 2400.0 mg/kg/injection, schedule: Q04DX003 (sc), vehicle: saline with Tween-80) was 147 % of control.
For the compound `C/C(=C\c1ccccc1)[N+](=O)[O-]`, the survivor count runs as follows: (dose: 400.0 mg/kg/injection, schedule: Q01DX010 (sc), vehicle: Klucel (hydroxypropylcellulose) (HPC)) 1 of 3 on day 11; (dose: 800.0 mg/kg/injection, schedule: Q01DX010 (sc), vehicle: Klucel (hydroxypropylcellulose) (HPC)) 0 of 3 on day 11.
Consider `C/C(=N\N=C(/[Se])N1CC2CCC(CC2)C1)c1ccccn1`, for which the survivor count (dose: 100.0 mg/kg/injection, schedule: Q04DX003 (sc), vehicle: Klucel (hydroxypropylcellulose) (HPC)) is listed as 2 of 6 on day 11 and the survivor count (dose: 200.0 mg/kg/injection, schedule: Q04DX003 (sc), vehicle: Klucel (hydroxypropylcellulose) (HPC)) was 1 of 6 on day 11.
Turning to `CC[C@@]1(O)C(=O)OCc2c1cc1n(c2=O)Cc2cc3cc(O)ccc3nc2-1`, for the setting “dose: 256.0 mg/kg/injection, schedule: Q04DX003 (sc), vehicle: suspension in saline”, the survivor count is 3 of 6 on day 11.
For the compound `COc1c(C=O)c2c(c(OC)c1OC)-c1ccc(OC)c(=O)cc1[C@@H](NC(C)=O)CC2`, the survivor count was 3 of 5 on day 11 (dose: 75.0 mg/kg/injection, schedule: Q04DX003 (sc), vehicle: Klucel (hydroxypropylcellulose) (HPC)) and 0 of 5 on day 11 under setting [1].
`CN1N=C(N)c2cn(C3OC(COP(=O)(O)O)C(O)C3O)c3ncnc1c23` (stereo not drawn): the survivor count runs as follows: (dose: 100.0 mg/kg/injection, schedule: Q01DX010 (sc), vehicle: water) 0 of 3 on day 11 and 1 of 3 on day 11; (dose: 200.0 mg/kg/injection, schedule: Q01DX010 (sc), vehicle: water) 0 of 3 on day 11.
With `CC1=CC2c3cccc4[nH]cc(c34)CC2N(C)C1` (stereo not drawn), the survivor count reads like this: (dose: 25.0 mg/kg/injection, schedule: Q04DX003 (sc), vehicle: suspension in saline) 3 of 6 on day 11; (dose: 50.0 mg/kg/injection, schedule: Q04DX003 (sc), vehicle: suspension in saline) 0 of 6 on day 11; (dose: 100.0 mg/kg/injection, schedule: Q04DX003 (sc), vehicle: suspension in saline) 0 of 6 on day 11.
Turning to `O=NNc1ccccn1`, the T/C is, setting by setting: (dose: 0.5 mg/kg/injection, schedule: Q01DX010 (sc), vehicle: saline) 135 % of control; under setting [4], -96 [4 of 6 alive on day 11], -31, 88 % of control; under setting [5], 76 % of control. The survivor count reads like this: (dose: 25.0 mg/kg/injection, schedule: Q01DX010 (sc), vehicle: saline) 3 of 6 on day 11; (dose: 50.0 mg/kg/injection, schedule: Q01DX010 (sc), vehicle: saline) 0 of 6 on day 11; (dose: 64.0 mg/kg/injection, schedule: Q01DX010 (sc), vehicle: saline) 2 of 6 on day 11; under setting [4], 0 of 6 on day 11; (dose: 128.0 mg/kg/injection, schedule: Q01DX010 (sc), vehicle: saline) 0 of 3 on day 11 and 0 of 6 on day 11; under setting [5], 0 of 6 on day 11 and 3 of 6 on day 11. The survivor count runs as follows: (dose: 256.0 mg/kg/injection, schedule: Q04DX003 (sc), vehicle: saline) 0 of 6 on day 11; (dose: 512.0 mg/kg/injection, schedule: Q04DX003 (sc), vehicle: saline) 0 of 6 on day 11; (dose: 1024.0 mg/kg/injection, schedule: Q04DX003 (sc), vehicle: saline) 0 of 6 on day 11.
`Nc1nncs1`: the T/C (dose: 12.5 mg/kg/injection, schedule: Q01DX010 (sc), vehicle: saline) is 144 % of control [2 of 2 alive on day 11].
Take `C=C1C(=O)O[C@@H]2[C@H](O)[C@@H](C)[C@@H]3C=CC(=O)[C@@]3(C)[C@H](OC(=O)C=C(C)C)[C@H]12`: for the setting “dose: 75.0 mg/kg/injection, schedule: Q04DX003 (sc), vehicle: saline with Tween-80”, the survivor count was 1 of 6 on day 11.
For `CCCNC1=C(C)C(=O)C2=C(C1=O)[C@H](COC(N)=O)[C@]1(OC)[C@@H]3N[C@@H]3CN21`, the survivor count (dose: 24.0 mg/kg/injection, schedule: Q04DX003 (sc), vehicle: suspension in saline) was 0 of 6 on day 11 and the survivor count (dose: 48.0 mg/kg/injection, schedule: Q04DX003 (sc), vehicle: suspension in saline) is recorded as 0 of 6 on day 11.
Consider `O=C(C#Cc1ccccc1)c1ccccc1`, for which, under setting [1], the survivor count is 2 of 6 on day 11.

The values above are taken from PubChem BioAssay AID296 (DTP/NCI, 2004).
